Values quoted from earlier work, collected in patent US20150037394A1, “DRUG DELIVERY FORMULATIONS” (King's College London, priority 2011, published 2015).
Some entries share one result that the patent states for a list of compounds.

Conditions: for every 7-8° C. increase in temperature; cited from earlier work

Compound | Maximum fold enhancement in diffusion
CCCCOC(=O)c1ccc(O)cc1 [butyl paraben] | ≤ 1.6 fold
COC(=O)c1ccc(O)cc1 [methyl paraben] | ≤ 1.6 fold
